These are yes or no findings as the source states them, for the method shown.
What was measured:
Assay in all cases: peptide or protein array; GDF-15-related receptor microarray: five recombinant human receptors printed in duplicate; biotinylated GDF-15 at 0.1, 1.0 and 10 μg/mL incubated 2 h at room temperature; detected with Cy3-streptavidin; biotin as negative control; both purified
[1] = molecular target: T1, transforming growth factor-beta receptor I, recombinant human (human) (UniProt P36897)
T1 sequence: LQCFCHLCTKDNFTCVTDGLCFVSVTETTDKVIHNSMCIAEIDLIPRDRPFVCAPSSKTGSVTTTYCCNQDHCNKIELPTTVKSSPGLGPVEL

Chains of the proteins cited; added tags and fusions are not shown. Residues count along the entry.
UniProt P21860, residues 20-643: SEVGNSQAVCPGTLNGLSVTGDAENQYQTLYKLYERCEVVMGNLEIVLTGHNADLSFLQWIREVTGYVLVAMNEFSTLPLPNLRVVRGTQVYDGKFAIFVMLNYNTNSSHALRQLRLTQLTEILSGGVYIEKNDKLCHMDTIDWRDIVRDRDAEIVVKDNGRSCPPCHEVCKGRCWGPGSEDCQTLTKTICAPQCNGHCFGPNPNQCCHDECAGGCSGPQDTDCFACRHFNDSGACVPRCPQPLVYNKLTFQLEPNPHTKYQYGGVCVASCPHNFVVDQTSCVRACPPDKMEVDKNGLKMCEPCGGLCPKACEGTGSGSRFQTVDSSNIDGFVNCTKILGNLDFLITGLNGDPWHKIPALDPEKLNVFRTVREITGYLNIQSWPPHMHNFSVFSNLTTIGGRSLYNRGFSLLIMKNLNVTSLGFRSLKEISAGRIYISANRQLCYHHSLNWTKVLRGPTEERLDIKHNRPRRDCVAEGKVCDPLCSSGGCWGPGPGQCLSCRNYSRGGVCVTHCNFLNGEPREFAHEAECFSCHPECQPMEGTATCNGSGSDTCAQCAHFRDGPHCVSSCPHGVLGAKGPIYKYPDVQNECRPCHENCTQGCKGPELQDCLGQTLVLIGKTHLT

[2] = molecular target: human epidermal growth factor receptor 3, recombinant human (human) (UniProt P21860)
[3] = molecular target: epidermal growth factor receptor, recombinant human (human) (UniProt P00533)

Measured: binding

B1: Growth differentiation factor-15, biotinylated (ligand, UniProt Q99988 195-308)
chain: ARARNGDHCPLGPGRCCRLHTVRASLEDLGWADWVLSPREVQVTMCIGACPSQFRAANMHAQIKTSLHRLKPDTVPAPCCVPASYNPMVLIQKTDTGVSLQTYDDLLAKDCHCI
modifications: biotin (sites not given)
no binding (tested: 10 μg/mL): all assays above

Reference: publication PMC10813690
